Results reported in PubChem BioAssay AID330 (DTP/NCI, 2004).
The list shows only some results of the screen, not a fair sample: it is rich in T/C values a quarter to a half above the control, in often repeated tests (any T/C) and in doses without a T/C. Other doses and runs of a compound stand elsewhere. T/C is the treated group as % of the vehicle group. Some doses have a count of surviving animals in place of a T/C: the source files T/C as zero there, which appears to mark a toxic dose or a test without result, not a measured value. Some doses without a T/C left all or most animals alive at the check, yet need not have been tolerated: the source hardly ever lists a survival T/C far under the control, and the zero likely stands for such cases as well. Survivors were counted at the toxicity check, usually on the fifth day, unless a day is given; later deaths do not show. Schedules are NCI's codes, taken here to give the interval after Q, in days (D) or hours (H), and the number of doses after X. Some molecules as drawn cover several salts, stereoisomers or complexes of the source; a dose is that of the sample tested. Some entries hold several experiments; their values stand side by side, smallest first. For survival time, the PubChem record calls one and a half times the control and up active, and a quarter to a half above the control has no call in these data; cut-offs in other NCI protocols can differ. Some T/C values carry the count of animals alive at the toxicity check (mostly the fifth day); without a count, all were alive then. Additions like (4×) count equal records among those shown.

Test system: P388 leukemia ip, CD2F1 mice, survival T/C
Experiment: NCI In Vivo Anticancer Drug Screen. Data for tumor model P388 Leukemia (intraperitoneal) in CD2F1 (CDF1) mice
Settings: T/C endpoint: median survival time, higher T/C = longer survival
[1] = dose: 12.5 mg/kg/injection, schedule: Q01DX009 (ip), vehicle: saline
[2] = dose: 25.0 mg/kg/injection, schedule: Q01DX009 (ip), vehicle: saline
[3] = dose: 30.0 mg/kg/injection, schedule: Q01DX005 (iv), vehicle: water
[4] = dose: 30.0 mg/kg/injection, schedule: Q01DX009 (ip), vehicle: water
[5] = dose: 50.0 mg/kg/injection, schedule: Q01DX009 (ip), vehicle: saline

ClCC[N+]12CC[N+](CCCl)(CC1)C2 was tested, and the survivor count (dose: 3.12 mg/kg/injection, schedule: Q01DX009 (ip), vehicle: water) was 6 of 6, the T/C (dose: 6.25 mg/kg/injection, schedule: Q01DX009 (ip), vehicle: saline) was 128 % of control and the survivor count (dose: 6.25 mg/kg/injection, schedule: Q01DX009 (ip), vehicle: water) was 1 of 6. The T/C (dose: 12.5 mg/kg/injection, schedule: Q01DX009 (ip), vehicle: distilled water + Tween-80) was 108, 117, 127, 129 % of control, the T/C [1] was 126 and 128 % of control (2×) and the survivor count [1] was 5 of 6 and 6 of 6. The T/C (dose: 12.5 mg/kg/injection, schedule: Q01DX009 (ip), vehicle: water, evaluated on day 30) was 95, 108 (2×), 109, 114 (2×), 126, 131, 132, 133 % of control, the T/C (dose: 12.5 mg/kg/injection, schedule: Q01DX009 (ip), vehicle: water, evaluated on day 40) was 122 % of control and the survivor count (dose: 12.5 mg/kg/injection, schedule: Q01DX009 (ip), vehicle: water) was 6 of 6. For the same compound, the T/C (dose: 21.08 mg/kg/injection, schedule: Q01DX009 (ip), vehicle: clinical formulation) was 137 % of control, the T/C (dose: 25.0 mg/kg/injection, schedule: Q01DX005 (ip), vehicle: water) was 125 % of control and the T/C (dose: 25.0 mg/kg/injection, schedule: Q01DX009 (ip), vehicle: distilled water + Tween-80, evaluated on day 30) was 131, 141 (2×), 163 % of control. The T/C (dose: 25.0 mg/kg/injection, schedule: Q01DX009 (ip), vehicle: distilled water + Tween-80, evaluated on day 40) was 147 % of control, the T/C (dose: 25.0 mg/kg/injection, schedule: Q01DX009 (ip), vehicle: saline with Tween-80) was 131 and 136 % of control and the T/C [2] was 164 and 238 % of control. For the same compound, the survivor count [2] was 0 of 6 and 1 of 6, the T/C (dose: 25.0 mg/kg/injection, schedule: Q01DX009 (ip), vehicle: water, evaluated on day 30) was 112, 114, 125, 128 [5 of 6 alive], 131, 132, 133, 138, 141 (2×), 147, 163 % of control and the T/C (dose: 25.0 mg/kg/injection, schedule: Q01DX009 (ip), vehicle: water, evaluated on day 40) was 166 % of control. For the same compound, the survivor count (dose: 25.0 mg/kg/injection, schedule: Q01DX009 (ip), vehicle: water) was 6 of 6, the T/C (dose: 30.0 mg/kg/injection, schedule: Q01DX005 (ip), vehicle: water) was 133 % of control and the T/C [3] was 129 % of control. The survivor count [3] was 10 of 10, the T/C [4] was 134 % of control and the survivor count [4] was 9 of 10. For the same compound, the T/C (dose: 31.61 mg/kg/injection, schedule: Q01DX009 (ip), vehicle: clinical formulation) was 142 % of control, the T/C (dose: 31.61 mg/kg/injection, schedule: Q01DX009 (ip), vehicle: water) was 142 % of control and the T/C (dose: 44.0 mg/kg/injection, schedule: Q01DX009 (ip), vehicle: water) was 146 % of control. For the same compound, the T/C (dose: 47.42 mg/kg/injection, schedule: Q01DX009 (ip), vehicle: clinical formulation) was 149 % of control, the T/C (dose: 47.42 mg/kg/injection, schedule: Q01DX009 (ip), vehicle: water) was 134 % of control and the T/C (dose: 50.0 mg/kg/injection, schedule: Q01DX005 (ip), vehicle: water) was 130 % of control. For the same compound, the T/C (dose: 50.0 mg/kg/injection, schedule: Q01DX009 (ip), vehicle: distilled water + Tween-80) was 142, 155, 175, 194 % of control, the T/C (dose: 50.0 mg/kg/injection, schedule: Q01DX009 (ip), vehicle: saline with Tween-80) was 140, 146, 147 % of control and the T/C [5] was 117, 125, 186 % of control. For the same compound, the survivor count [5] was 0 of 6, the T/C (dose: 50.0 mg/kg/injection, schedule: Q01DX009 (ip), vehicle: water, evaluated on day 30) was 129, 135, 142, 144, 147, 150, 175, 178, 182, 187, 200 % of control and the T/C (dose: 50.0 mg/kg/injection, schedule: Q01DX009 (ip), vehicle: water, evaluated on day 40) was 181 % of control. For the same compound, the survivor count (dose: 50.0 mg/kg/injection, schedule: Q01DX009 (ip), vehicle: water) was 2 of 6, the T/C (dose: 50.0 mg/kg/injection, schedule: Q04DX003 (ip), vehicle: saline with Tween-80) was 145 % of control and the T/C (dose: 53.34 mg/kg/injection, schedule: Q01DX005 (iv), vehicle: clinical formulation) was 127 % of control. The T/C (dose: 60.0 mg/kg/injection, schedule: Q01DX005 (iv), vehicle: water, evaluated on day 35) was 143 % of control [9 of 10 alive], the T/C (dose: 60.0 mg/kg/injection, schedule: Q01DX005 (iv), vehicle: water, evaluated on day 60) was 129 % of control and the survivor count (dose: 60.0 mg/kg/injection, schedule: Q01DX005 (iv), vehicle: water) was 0 of 10. The T/C (dose: 60.0 mg/kg/injection, schedule: Q01DX009 (ip), vehicle: clinical formulation) was 126 % of control, the survivor count (dose: 60.0 mg/kg/injection, schedule: Q01DX009 (ip), vehicle: water) was 1 of 10 and the T/C (dose: 60.0 mg/kg/injection, schedule: Q01DX009 (oral), vehicle: water) was 125 % of control. The T/C (dose: 80.0 mg/kg/injection, schedule: Q01DX005 (ip), vehicle: water) was 130 % of control, the T/C (dose: 100.0 mg/kg/injection, schedule: Q01DX006 (ip), vehicle: water) was 146 % of control and the T/C (dose: 100.0 mg/kg/injection, schedule: Q01DX009 (ip), vehicle: distilled water + Tween-80) was 155, 209, 212, 231 % of control. For the same compound, the survivor count (dose: 100.0 mg/kg/injection, schedule: Q01DX009 (ip), vehicle: saline) was 0 of 6 and 6 of 6, the T/C (dose: 100.0 mg/kg/injection, schedule: Q01DX009 (ip), vehicle: water, evaluated on day 30) was 120, 136, 148, 149, 169, 173, 177, 178 (2×), 184, 203, 209, 221 % of control and the T/C (dose: 100.0 mg/kg/injection, schedule: Q01DX009 (ip), vehicle: water, evaluated on day 40) was 210 % of control. For the same compound, the survivor count (dose: 100.0 mg/kg/injection, schedule: Q01DX009 (ip), vehicle: water) was 0 of 6 and 6 of 6.
